Assay results reported in PubChem BioAssay AID540256 (National Center for Advancing Translational Sciences (NCATS), 2011).
Hit rate of the full screen: of about 300,000 compounds, about 3,700 (1.2%) were called active. This list was built around the results that the source calls inconclusive (neither active nor inactive); the mix of calls is not that of the screen. Calls come from the whole dose curve; tested in HEK293 cells. A potency beside an inconclusive call is a rough fit, not a confirmed value.
% is set by controls: 0 for no effect and ±100 for the full control effect; potency is the fitted concentration of half-maximal effect.

Experiment: qHTS for Inhibitors of binding or entry into cells for Lassa Virus; note: nearly all actives have a fitted effect of over 50% in size
Conditions: Lassa virus pseudotype entry inhibition, cell reporter; activity change, negative = inhibition: at 37.9 µM (top of the series) unless noted
With O=C(CSC1=NCCS1)N1CCc2ccccc21 the Potency was inconclusive: 5.62 µM [activator, single point]. For Cc1ccc(C2(c3noc(CN(C)CCO)n3)CCCC2)cc1, the Potency was inconclusive: 11.2 µM [inhibitor, partial curve, poor fit]. With Cc1occc1C(=O)NC1CCCN(Cc2ccc(Cl)cc2)C1 (configuration not stated) the Potency was inconclusive: 35.5 µM [inhibitor, single point]. For O=C(/C=C/c1ccccc1)NC(NC(=S)Nc1cccc(O)c1)C(Cl)(Cl)Cl (configuration not stated), the Potency was inconclusive: 15.8 µM [inhibitor, single point]. In the case of Cc1cccc(C(=O)NCC(=O)N2CCCC2)c1, the “activity change, negative = inhibition” value is reported as inactive: 17.3% [at 46.1 µM]. For CC1(O)C(=O)C=C2C=C(c3ccc(C#N)cc3)OC=C2C1=O (configuration not stated), the Potency was inconclusive: 1.06 µM [activator, single point]. In the case of O=C(CC1C(=O)NCCN1Cc1ccc(Cl)c(F)c1)NC1CCC1 (configuration not stated), the “activity change, negative = inhibition” value is reported as inactive: 19% [at 46.1 µM]. In the case of Cc1nc(N2CCN(C(=O)c3ccco3)CC2)c2oc3ccccc3c2n1, the Potency is reported as inconclusive: 14.1 µM [inhibitor, single point]. With O=P(NC1CCCCC1)(c1ccccc1)c1ccccc1 the Potency was inconclusive: 20 µM [activator, single point]. In the case of COc1cc(OC)c(OC)cc1CN(C)C(c1ccccc1)c1nnnn1-c1ccccc1C (configuration not stated), the Potency is reported as inconclusive: 7.94 µM [inhibitor, partial curve]. For O=C(CCC(=O)c1ccccc1)Nc1ccccc1OC(F)F, the Potency was inconclusive: 6.31 µM [inhibitor, single point]. In the case of COc1ccccc1CNC(=O)CN(C)Cc1ccc(SC)cc1, the Potency is reported as inconclusive: 14.1 µM [inhibitor, partial curve, poor fit]. With CC(=O)NCCc1csc(-c2ccccc2)n1 the Potency was inconclusive: 23.1 µM [activator, single point]. In the case of N#Cc1cccc(NC(=O)CNc2cccc(S(=O)(=O)N3CCCC3)c2)c1, the Potency is reported as inconclusive: 14.1 µM [inhibitor, partial curve, poor fit]. For COc1ccc(C(=O)Nc2nc3ccccc3c(=O)[nH]2)cc1, the Potency was inconclusive: 13 µM [inhibitor, partial curve, poor fit]. For Cc1onc(-c2ccccc2Cl)c1C(=O)NCc1ccccn1, the “activity change, negative = inhibition” value was inactive: 2.05%. In the case of CCCCCCN1C[C@H](O)[C@@H](n2cc(-c3ccc(F)cc3)nn2)C[C@H]1c1ccccc1, the Potency is reported as active: 15.8 µM. In the case of CCN1CCN(C(=O)c2ccc3c(=O)n(CCc4ccccc4)c(=O)[nH]c3c2)CC1, the “activity change, negative = inhibition” value is reported as inactive: 14.8%. In the case of Nc1nc(Nc2ccccc2)nc(NCc2ccccc2)c1[N+](=O)[O-], the Potency is reported as inconclusive: 15.8 µM [inhibitor, single point]. In the case of COc1ccc(Nc2c(-c3ccco3)nc3cccc(C)n23)cc1, the “activity change, negative = inhibition” value is reported as inactive: 5.01% [at 46.1 µM]. In the case of COc1ccc(NC(=O)/C(=C/c2cccnc2)NC(=O)c2cccs2)cc1, the “activity change, negative = inhibition” value is reported as inactive: 10.5%. With C(#CCN1CCCCC1)COCc1ccccc1 the “activity change, negative = inhibition” value was inactive: 14.6%. For CS(=O)(=O)N(CC(=O)N/N=C/c1cc([N+](=O)[O-])ccc1Cl)c1ccccc1, the Potency was inconclusive: 35.5 µM [inhibitor, partial curve, poor fit]. For CCOC(=O)N1CCN(C(=O)COC(=O)c2cc(Cl)c(O)c(Cl)c2)CC1, the “activity change, negative = inhibition” value was inactive: -20.2%. With CC(=O)c1ccc(-n2cc(-c3ccc(C(C)(C)C)cc3)[n+]3c2SCCC3)cc1 the Potency was inconclusive: 31.6 µM [inhibitor, single point]. For CC(Oc1ccc(Cl)cc1Cl)C(=O)NCCC1=CCCCC1 (configuration not stated), the “activity change, negative = inhibition” value was inactive: -3.46%. With Cc1cc(C)c(S(=O)(=O)c2ccccc2C(C)C)c(=O)[nH]1 the Potency was inconclusive: 12.6 µM [inhibitor, single point]. For O=C(Nc1ccc([N+](=O)[O-])cc1Cl)c1cc(Cl)ccc1O, the Potency was active: 1.3 µM. In the case of Cc1ccc(-c2nnn(CC(=O)NC3CCN(Cc4ccccc4)CC3)n2)cc1, the “activity change, negative = inhibition” value is reported as inactive: 5.74%. For COC[C@@H]1N[S+](=O)([O-])c2ccc(Br)cc2O[C@@H]1c1ccccc1, the Potency was inconclusive: 0.445 µM [inhibitor, full curve, poor fit]. In the case of COc1cccc(Nc2nc(N)nc(-c3oc4ccccc4c3C)n2)c1, the “activity change, negative = inhibition” value is reported as inactive: -25.9%. For COc1ccccc1C(=O)NCC(=O)NC(C)c1ccc(-n2ccnc2)cc1 (configuration not stated), the “activity change, negative = inhibition” value was inactive: 21.2%. For Cc1cc(C)c2oc(-c3cc(NC(=O)Cc4ccccc4)ccc3Cl)nc2c1, the “activity change, negative = inhibition” value was inactive: -10.4% [at 46.1 µM]. For Cc1nc(-c2ccc(F)cc2)c(CC(=O)Nc2ccc(C)c(S(=O)(=O)N3CCOCC3)c2)s1, the Potency was inconclusive: 35.5 µM [inhibitor, single point]. For Cn1cc(C(=O)CCl)c2ccccc21, the Potency was inconclusive: 29.1 µM [inhibitor, single point]. With CO[C@@]12[C@@H]3N[C@@H]3CN1C1=C(C(=O)C(N)=C(C)C1=O)[C@@H]2COC(N)=O the Potency was inconclusive: 0.708 µM [inhibitor, full curve, poor fit]. For Cc1ccc(NC(=O)COC(=O)C2CCC2)cc1S(=O)(=O)N1CCCCC1, the “activity change, negative = inhibition” value was inactive: -8.07%. In the case of Cc1cc(C)cc(-n2c(O)c(C=Nc3ccc(N4CCOCC4)cc3)c(=O)[nH]c2=S)c1, the “activity change, negative = inhibition” value is reported as inactive: 0.17%. In the case of CCCOc1ccc(C2C(=O)N(C3CCCCCC3)CC(=O)N2Cc2ccc(OC)cc2)cc1OC (configuration not stated), the Potency is reported as inconclusive: 11.2 µM [inhibitor, single point]. For Cc1cc(N2CCN(c3cccc(C(F)(F)F)c3)CC2)n2nc(-c3ccccc3C)nc2n1, the “activity change, negative = inhibition” value was inactive: -0.26% [at 46.1 µM]. For COc1ccc(-c2nnc(-c3cc(OC)c(OC)c(OC)c3)o2)cc1OC, the Potency was inconclusive: 35.5 µM [inhibitor, single point]. With CCOc1ccc(-c2cc3c(=O)n(Cc4nc(-c5ccc(OC)cc5OC)oc4C)ccn3n2)cc1Cl the Potency was inconclusive: 5.62 µM [activator, full curve, poor fit]. For CCc1c(C(=O)NCc2ccccc2Cl)[nH]c(C)c1C(C)=O, the Potency was inconclusive: 35.5 µM [inhibitor, single point]. For CC(C)c1ccc(NC2CCCN(C(=O)c3cccnc3)C2)cc1 (configuration not stated), the “activity change, negative = inhibition” value was inactive: -11.4% [at 46.1 µM]. For O=C(NC1CCCCC1)c1cccs1, the “activity change, negative = inhibition” value was inactive: 13.7%. With O=C(CCSc1nc(-c2ccco2)cc(C(F)(F)F)n1)NCC1CCCO1 (configuration not stated) the “activity change, negative = inhibition” value was inactive: -6.61%. For CC(=O)N(c1c(C)n(C)n(-c2ccccc2)c1=O)C1(C(=O)NC2CCCCC2)CCCCC1, the “activity change, negative = inhibition” value was inactive: 17.4%.
